Data taken from article PMC9860500.
These are yes or no findings as the source states them, for the method shown. In cells and extracts the contact can be indirect. A yes stands for co-enrichment or nearness to the bait. Other partners may have been found. Where a sequence is shown, tags or fusion partners need not be part of it.

The chains behind the UniProt entries cited, without tags or fusion partners.
UniProt Q16531: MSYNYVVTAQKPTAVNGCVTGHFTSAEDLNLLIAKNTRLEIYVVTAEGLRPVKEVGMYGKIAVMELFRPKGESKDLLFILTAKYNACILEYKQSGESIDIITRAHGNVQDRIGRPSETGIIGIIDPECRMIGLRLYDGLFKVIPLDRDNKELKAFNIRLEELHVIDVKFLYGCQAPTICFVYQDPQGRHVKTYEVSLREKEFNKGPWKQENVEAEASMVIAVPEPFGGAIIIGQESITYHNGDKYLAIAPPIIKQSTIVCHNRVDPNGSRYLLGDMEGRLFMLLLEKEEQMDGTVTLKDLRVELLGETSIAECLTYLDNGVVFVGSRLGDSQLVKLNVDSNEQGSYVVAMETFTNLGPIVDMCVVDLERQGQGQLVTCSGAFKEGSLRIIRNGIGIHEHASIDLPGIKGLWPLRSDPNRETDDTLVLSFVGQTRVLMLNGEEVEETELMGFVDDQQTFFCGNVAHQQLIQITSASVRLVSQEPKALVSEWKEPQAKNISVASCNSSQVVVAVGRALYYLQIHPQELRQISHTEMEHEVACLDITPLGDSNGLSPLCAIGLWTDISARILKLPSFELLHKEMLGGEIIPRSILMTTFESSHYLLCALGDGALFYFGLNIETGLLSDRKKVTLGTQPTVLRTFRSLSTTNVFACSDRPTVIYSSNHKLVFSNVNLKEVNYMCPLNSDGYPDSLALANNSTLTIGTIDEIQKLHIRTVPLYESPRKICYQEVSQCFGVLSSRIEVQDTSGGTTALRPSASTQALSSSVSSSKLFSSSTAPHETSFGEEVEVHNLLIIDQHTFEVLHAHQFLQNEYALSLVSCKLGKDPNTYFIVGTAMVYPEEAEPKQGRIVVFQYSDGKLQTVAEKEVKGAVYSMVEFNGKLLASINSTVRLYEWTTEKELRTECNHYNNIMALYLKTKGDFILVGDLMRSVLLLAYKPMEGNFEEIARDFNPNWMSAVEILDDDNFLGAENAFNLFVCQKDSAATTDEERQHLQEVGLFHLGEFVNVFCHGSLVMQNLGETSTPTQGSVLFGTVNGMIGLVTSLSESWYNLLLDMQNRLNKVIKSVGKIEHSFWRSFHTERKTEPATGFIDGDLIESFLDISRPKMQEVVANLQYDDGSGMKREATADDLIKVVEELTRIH
UniProt P26038: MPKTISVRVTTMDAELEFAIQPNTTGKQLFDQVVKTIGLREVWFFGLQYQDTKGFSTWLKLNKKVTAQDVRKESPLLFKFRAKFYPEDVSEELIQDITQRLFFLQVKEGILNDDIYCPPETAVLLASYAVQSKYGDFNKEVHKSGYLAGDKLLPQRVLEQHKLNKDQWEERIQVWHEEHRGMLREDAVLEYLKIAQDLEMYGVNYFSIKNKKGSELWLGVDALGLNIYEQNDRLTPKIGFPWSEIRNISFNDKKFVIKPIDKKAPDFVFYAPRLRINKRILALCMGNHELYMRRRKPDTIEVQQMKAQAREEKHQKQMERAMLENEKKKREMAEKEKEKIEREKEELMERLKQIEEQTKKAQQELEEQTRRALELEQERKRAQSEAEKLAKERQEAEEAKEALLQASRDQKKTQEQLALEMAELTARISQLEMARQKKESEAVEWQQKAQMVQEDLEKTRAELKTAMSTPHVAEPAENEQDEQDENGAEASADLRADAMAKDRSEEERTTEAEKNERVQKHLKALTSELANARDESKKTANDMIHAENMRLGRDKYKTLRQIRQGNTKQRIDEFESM
UniProt Q09028: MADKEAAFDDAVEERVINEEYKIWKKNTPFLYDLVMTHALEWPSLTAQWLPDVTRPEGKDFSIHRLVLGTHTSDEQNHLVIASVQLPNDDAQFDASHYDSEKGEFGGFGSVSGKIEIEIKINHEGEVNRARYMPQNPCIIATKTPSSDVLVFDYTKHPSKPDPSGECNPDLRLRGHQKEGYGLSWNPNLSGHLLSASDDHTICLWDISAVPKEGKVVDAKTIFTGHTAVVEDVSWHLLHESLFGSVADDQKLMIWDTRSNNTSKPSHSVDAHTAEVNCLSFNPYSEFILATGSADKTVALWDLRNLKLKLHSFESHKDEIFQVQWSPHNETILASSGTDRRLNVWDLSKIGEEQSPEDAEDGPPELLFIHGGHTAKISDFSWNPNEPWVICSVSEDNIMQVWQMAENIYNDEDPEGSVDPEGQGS
UniProt Q14839: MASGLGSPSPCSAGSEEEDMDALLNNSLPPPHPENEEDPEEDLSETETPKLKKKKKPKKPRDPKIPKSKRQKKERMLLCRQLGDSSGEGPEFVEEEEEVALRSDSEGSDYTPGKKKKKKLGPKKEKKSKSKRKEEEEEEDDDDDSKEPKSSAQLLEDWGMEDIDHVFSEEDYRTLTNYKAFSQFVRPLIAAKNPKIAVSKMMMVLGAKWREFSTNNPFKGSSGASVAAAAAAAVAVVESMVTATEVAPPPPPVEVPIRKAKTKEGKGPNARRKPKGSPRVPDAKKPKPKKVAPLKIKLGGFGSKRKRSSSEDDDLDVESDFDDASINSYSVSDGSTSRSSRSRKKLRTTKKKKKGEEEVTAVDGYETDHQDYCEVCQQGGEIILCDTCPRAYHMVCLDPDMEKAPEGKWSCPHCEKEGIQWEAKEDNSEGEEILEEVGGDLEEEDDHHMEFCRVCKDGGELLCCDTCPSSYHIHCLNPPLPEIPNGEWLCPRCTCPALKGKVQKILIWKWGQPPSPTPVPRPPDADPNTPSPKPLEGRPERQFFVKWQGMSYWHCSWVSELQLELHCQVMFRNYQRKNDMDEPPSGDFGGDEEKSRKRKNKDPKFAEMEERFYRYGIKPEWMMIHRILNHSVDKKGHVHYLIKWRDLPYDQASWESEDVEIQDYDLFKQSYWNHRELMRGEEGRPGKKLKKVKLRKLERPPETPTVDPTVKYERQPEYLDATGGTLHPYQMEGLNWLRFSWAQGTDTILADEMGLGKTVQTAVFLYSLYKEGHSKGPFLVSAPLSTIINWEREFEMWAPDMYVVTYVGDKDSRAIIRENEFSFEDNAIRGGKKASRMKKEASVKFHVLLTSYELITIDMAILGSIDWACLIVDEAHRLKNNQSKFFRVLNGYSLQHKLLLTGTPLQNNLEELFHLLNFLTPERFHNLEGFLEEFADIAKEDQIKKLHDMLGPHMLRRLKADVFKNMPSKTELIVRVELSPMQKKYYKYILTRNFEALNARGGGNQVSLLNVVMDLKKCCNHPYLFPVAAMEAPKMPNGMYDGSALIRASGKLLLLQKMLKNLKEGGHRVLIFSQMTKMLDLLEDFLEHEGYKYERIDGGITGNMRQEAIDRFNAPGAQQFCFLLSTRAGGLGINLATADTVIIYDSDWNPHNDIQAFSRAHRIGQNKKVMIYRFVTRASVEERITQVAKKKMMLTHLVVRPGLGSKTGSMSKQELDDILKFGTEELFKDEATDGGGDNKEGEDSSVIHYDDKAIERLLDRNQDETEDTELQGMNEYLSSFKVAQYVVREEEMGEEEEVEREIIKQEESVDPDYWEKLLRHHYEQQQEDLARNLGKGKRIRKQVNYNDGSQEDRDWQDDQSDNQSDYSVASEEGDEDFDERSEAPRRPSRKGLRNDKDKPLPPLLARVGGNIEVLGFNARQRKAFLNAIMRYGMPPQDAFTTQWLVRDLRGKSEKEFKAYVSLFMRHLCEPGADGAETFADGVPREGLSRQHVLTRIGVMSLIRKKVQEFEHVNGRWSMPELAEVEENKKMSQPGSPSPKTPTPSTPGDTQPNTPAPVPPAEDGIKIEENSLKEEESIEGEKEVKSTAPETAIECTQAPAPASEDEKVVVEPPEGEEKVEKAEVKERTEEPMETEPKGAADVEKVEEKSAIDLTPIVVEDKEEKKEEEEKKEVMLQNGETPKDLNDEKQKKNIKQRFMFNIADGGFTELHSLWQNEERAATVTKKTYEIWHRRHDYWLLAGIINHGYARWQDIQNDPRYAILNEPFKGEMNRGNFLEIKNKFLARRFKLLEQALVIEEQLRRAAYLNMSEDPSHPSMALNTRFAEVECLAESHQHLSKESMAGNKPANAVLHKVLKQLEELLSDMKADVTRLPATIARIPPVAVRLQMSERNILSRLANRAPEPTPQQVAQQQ
UniProt P13010: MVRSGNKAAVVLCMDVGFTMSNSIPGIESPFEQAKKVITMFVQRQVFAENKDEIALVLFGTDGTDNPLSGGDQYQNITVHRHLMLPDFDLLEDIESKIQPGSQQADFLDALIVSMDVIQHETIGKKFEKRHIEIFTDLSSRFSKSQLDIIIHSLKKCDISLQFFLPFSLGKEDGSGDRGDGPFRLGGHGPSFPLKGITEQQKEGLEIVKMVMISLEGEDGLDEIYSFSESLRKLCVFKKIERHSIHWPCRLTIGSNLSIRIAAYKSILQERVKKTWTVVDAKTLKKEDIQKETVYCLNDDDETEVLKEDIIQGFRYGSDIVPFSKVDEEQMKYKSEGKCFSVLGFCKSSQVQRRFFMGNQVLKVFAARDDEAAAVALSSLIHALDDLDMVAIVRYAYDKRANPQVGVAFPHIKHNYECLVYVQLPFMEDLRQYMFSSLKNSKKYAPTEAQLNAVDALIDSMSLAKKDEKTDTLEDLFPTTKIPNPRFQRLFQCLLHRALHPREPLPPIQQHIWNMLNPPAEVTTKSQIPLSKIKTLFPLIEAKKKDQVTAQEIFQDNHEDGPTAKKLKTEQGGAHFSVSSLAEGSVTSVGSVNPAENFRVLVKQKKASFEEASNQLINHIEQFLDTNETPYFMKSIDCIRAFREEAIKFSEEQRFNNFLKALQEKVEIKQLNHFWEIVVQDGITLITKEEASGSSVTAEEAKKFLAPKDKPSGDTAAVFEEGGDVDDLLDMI
UniProt Q92769: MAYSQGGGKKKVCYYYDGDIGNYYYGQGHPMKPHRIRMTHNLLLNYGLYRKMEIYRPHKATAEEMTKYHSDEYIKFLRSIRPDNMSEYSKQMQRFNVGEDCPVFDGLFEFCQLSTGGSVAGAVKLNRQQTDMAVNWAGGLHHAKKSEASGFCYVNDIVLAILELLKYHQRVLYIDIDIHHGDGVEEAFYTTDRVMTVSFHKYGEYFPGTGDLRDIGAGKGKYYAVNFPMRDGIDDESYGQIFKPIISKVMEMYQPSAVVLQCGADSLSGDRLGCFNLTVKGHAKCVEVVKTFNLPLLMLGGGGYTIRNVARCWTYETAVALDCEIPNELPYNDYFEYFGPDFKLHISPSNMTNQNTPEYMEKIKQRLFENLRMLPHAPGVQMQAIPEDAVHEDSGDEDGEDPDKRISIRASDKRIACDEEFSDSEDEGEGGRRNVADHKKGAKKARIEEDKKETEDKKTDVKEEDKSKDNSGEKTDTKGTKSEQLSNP
UniProt P67809: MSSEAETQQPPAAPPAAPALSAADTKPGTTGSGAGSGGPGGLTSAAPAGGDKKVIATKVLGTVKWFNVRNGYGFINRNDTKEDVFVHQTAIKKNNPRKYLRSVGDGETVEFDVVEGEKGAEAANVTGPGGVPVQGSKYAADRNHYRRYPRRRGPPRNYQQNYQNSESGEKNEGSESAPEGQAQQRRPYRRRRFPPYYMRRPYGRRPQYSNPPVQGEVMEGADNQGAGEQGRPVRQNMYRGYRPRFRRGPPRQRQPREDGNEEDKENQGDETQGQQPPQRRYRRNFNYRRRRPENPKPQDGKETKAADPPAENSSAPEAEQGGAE
UniProt Q13620: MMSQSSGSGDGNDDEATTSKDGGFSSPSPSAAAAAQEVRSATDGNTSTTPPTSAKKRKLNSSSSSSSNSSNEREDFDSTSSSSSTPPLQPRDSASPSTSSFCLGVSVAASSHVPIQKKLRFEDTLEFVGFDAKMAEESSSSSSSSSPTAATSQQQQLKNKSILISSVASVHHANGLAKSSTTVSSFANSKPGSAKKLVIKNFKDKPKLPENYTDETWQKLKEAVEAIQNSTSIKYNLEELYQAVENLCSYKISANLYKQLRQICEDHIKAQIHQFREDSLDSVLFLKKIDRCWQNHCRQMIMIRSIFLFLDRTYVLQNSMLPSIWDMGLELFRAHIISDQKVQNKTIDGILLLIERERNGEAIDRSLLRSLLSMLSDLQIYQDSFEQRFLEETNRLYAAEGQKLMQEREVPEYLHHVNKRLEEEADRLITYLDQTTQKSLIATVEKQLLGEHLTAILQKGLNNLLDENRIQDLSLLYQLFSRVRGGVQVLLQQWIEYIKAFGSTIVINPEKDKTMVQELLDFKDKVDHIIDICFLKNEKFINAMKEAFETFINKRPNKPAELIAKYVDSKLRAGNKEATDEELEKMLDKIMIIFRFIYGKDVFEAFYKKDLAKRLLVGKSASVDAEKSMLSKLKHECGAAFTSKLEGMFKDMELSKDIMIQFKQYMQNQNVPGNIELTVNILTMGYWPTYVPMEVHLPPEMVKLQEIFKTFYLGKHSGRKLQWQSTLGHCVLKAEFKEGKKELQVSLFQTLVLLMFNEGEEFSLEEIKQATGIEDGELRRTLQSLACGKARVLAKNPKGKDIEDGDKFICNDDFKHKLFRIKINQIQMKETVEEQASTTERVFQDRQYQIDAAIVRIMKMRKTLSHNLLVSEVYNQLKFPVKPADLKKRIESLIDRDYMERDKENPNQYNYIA

The substances below were run against T1, FLAG-CXXC5 (UniProt Q7LFL8) (assay: affinity purification with mass spectrometry; lysate of MCF-7 cells stably expressing FLAG-CXXC5 on an anti-FLAG M2 affinity gel column, eluted with FLAG peptide, gel bands silver stained and analysed by LC-MS/MS).
T1 sequence: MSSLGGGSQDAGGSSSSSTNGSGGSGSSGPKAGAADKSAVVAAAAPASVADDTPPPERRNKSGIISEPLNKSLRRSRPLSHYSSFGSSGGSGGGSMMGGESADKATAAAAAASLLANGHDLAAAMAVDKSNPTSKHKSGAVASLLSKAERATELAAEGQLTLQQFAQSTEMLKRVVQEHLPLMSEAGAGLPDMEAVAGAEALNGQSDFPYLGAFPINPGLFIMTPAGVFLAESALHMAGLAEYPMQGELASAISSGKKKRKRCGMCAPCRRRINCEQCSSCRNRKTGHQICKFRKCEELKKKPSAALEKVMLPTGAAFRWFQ

binding, binds:
DDB1 (from UniProt Q16531 1-1140)
MSN (from UniProt P26038 1-577)
RbAp48 (from UniProt Q09028 1-425)
CHD4 (from UniProt Q14839 1-1912)
XRCC5 (from UniProt P13010 1-732)
HDAC2 (from UniProt Q92769 1-488)
YBX1 (from UniProt P67809 1-324)
CUL4B (from UniProt Q13620 1-913)
